{
  "sequences": {"note": "Sequences of proteins named here, by UniProt entry; tags and fusion partners are left off.", "UniProt P15337": "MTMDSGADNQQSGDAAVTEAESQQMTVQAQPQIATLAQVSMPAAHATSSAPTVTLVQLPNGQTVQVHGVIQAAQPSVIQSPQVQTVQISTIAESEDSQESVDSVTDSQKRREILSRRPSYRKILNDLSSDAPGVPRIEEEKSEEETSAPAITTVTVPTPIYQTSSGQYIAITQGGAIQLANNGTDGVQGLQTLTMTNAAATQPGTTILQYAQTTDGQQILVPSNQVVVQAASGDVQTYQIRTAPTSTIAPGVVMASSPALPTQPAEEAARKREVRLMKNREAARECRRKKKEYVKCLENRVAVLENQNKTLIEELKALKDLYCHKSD", "UniProt P05412": "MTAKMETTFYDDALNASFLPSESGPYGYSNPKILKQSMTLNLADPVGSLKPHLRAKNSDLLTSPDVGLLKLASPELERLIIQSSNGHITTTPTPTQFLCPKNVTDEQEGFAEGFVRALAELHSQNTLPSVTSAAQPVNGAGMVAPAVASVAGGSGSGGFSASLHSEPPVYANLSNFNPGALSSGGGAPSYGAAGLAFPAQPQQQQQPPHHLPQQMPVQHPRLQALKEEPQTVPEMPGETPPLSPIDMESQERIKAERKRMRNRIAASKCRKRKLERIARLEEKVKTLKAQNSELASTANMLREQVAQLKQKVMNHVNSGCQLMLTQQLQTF", "UniProt P16220": "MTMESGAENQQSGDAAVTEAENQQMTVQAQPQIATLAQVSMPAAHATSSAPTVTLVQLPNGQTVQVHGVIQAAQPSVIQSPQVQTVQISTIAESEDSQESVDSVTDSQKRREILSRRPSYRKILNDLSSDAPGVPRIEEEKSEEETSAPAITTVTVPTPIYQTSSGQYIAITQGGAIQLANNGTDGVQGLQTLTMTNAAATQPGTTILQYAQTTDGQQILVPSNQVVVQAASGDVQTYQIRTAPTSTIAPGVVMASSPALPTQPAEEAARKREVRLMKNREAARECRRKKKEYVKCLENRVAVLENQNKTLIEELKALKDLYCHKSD"},
  "source": "paper PMC2771921",
  "key": {"[1]": {"molecular_target": "T1, endogenous WOX1 (SK-N-SH neuroblastoma cells) (human (endogenous in SK-N-SH)) (UniProt Q9NZC7)", "T1 sequence": "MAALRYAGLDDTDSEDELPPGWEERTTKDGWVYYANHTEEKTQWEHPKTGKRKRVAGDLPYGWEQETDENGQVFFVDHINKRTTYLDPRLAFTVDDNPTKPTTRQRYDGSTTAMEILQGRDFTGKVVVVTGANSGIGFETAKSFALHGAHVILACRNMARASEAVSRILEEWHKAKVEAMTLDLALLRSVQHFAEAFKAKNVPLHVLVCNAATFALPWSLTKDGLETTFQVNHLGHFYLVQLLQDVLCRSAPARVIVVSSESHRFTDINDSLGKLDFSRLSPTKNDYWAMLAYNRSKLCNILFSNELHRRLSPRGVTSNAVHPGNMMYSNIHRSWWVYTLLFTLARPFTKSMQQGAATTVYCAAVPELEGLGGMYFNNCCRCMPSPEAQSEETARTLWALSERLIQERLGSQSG", "assay": "co-IP; human SK-N-SH cell lysates, precleared with protein A agarose, immunoprecipitated with anti-WOX1 IgG and protein A agarose, Western blotting; cells exposed to ischemic conditions (1% oxygen and low glucose) for 2 hours by the methods; data not shown"}, "[2]": {"molecular_target": "CREB-EGFP (rat CREB in frame with EGFP) (rat) (UniProt P15337)", "assay": "FRET or BRET; primary rat DRG neurons co-transfected with DsRed and EGFP fusions, cultured 24-48 hr; EGFP donor, DsRed2 acceptor; excitation 455 nm, emission 600 nm; spectrally corrected FRETc; with or without deferoxamine (DFO, 500 µM, 2 hours)"}, "[3]": {"molecular_target": "EYFP-CREB (UniProt P15337)", "assay": "FRET or BRET; parallel FRET with ECFP and EYFP fusions (ECFP-WOX1 with EYFP-CREB, or ECFP-CREB with EYFP-WOX1); data not shown"}, "[4]": {"molecular_target": "ECFP-CREB (UniProt P15337)", "assay": "FRET or BRET; parallel FRET with ECFP and EYFP fusions (ECFP-WOX1 with EYFP-CREB, or ECFP-CREB with EYFP-WOX1); data not shown"}},
  "note": "No constants are given. Whether binding was seen depends on the method and setting. In cells and extracts the contact can be indirect. Some results given as binding are weak or reduced against the parent protein; the word gives no strength. For some assays here: Tags and fused reporters may be left off the sequences shown.",
  "data": [
    {"molecule": "endogenous c-Jun (SK-N-SH neuroblastoma cells) (from UniProt P05412 1-331)", "values": [
      {"measurement": "binding", "setting": "[1]", "result": "binds"}
    ]},
    {"molecule": "endogenous p-CREB (SK-N-SH neuroblastoma cells) (from UniProt P16220 1-327)", "values": [
      {"measurement": "binding", "setting": "[1]", "result": "binds"}
    ]},
    {"molecule": "WOX1-DsRed (full-length murine WOX1 in frame with DsRed) (protein, UniProt Q91WL8 1-414) MAALRYAGLDDTDSEDELPPGWEERTTKDGWVYYANHTEEKTQWEHPKTGKRKRVAGDLPYGWEQETDENGQVFFVDHINKRTTYLDPRLAFTVDDNPTKPTTRQRYDGSTTAMEILQGRDFTGKVVLVTGANSGIGFETAKSFALHGAHVILACRNLSRASEAVSRILEEWHKAKVEAMTLDLAVLRSVQHFAEAFKAKNVSLHVLVCNAGTFALPWGLTKDGLETTFQVNHLGHFYLVQLLQDVLCRSSPARVIVVSSESHRFTDINDSSGKLDLSRLSPPRSDYWAMLAYNRSKLCNILFSNELHRRLSPRGVTSNAVHPGNMMYSAIHRNSWVYKLLFTLARPFTKSMQQGAATTVYCAVAPELEGLGGMYFNNCCRCLPSEEAQSEETARALWELSERLIQDRLGSPSS", "values": [
      {"measurement": "binding", "setting": "[2]", "result": "binds"}
    ]},
    {"molecule": "ECFP-WOX1 (protein, UniProt Q91WL8 1-414) MAALRYAGLDDTDSEDELPPGWEERTTKDGWVYYANHTEEKTQWEHPKTGKRKRVAGDLPYGWEQETDENGQVFFVDHINKRTTYLDPRLAFTVDDNPTKPTTRQRYDGSTTAMEILQGRDFTGKVVLVTGANSGIGFETAKSFALHGAHVILACRNLSRASEAVSRILEEWHKAKVEAMTLDLAVLRSVQHFAEAFKAKNVSLHVLVCNAGTFALPWGLTKDGLETTFQVNHLGHFYLVQLLQDVLCRSSPARVIVVSSESHRFTDINDSSGKLDLSRLSPPRSDYWAMLAYNRSKLCNILFSNELHRRLSPRGVTSNAVHPGNMMYSAIHRNSWVYKLLFTLARPFTKSMQQGAATTVYCAVAPELEGLGGMYFNNCCRCLPSEEAQSEETARALWELSERLIQDRLGSPSS", "values": [
      {"measurement": "binding", "setting": "[3]", "result": "binds"}
    ]},
    {"molecule": "EYFP-WOX1 (protein, UniProt Q91WL8 1-414) MAALRYAGLDDTDSEDELPPGWEERTTKDGWVYYANHTEEKTQWEHPKTGKRKRVAGDLPYGWEQETDENGQVFFVDHINKRTTYLDPRLAFTVDDNPTKPTTRQRYDGSTTAMEILQGRDFTGKVVLVTGANSGIGFETAKSFALHGAHVILACRNLSRASEAVSRILEEWHKAKVEAMTLDLAVLRSVQHFAEAFKAKNVSLHVLVCNAGTFALPWGLTKDGLETTFQVNHLGHFYLVQLLQDVLCRSSPARVIVVSSESHRFTDINDSSGKLDLSRLSPPRSDYWAMLAYNRSKLCNILFSNELHRRLSPRGVTSNAVHPGNMMYSAIHRNSWVYKLLFTLARPFTKSMQQGAATTVYCAVAPELEGLGGMYFNNCCRCLPSEEAQSEETARALWELSERLIQDRLGSPSS", "values": [
      {"measurement": "binding", "setting": "[4]", "result": "binds"}
    ]}
  ]
}
